In the supplement of paper PMC8728848:
The list shows a part of the results.

Columns and labels:
Experiment in all cases: glycan array binding signal (z-score within array); higher = stronger binding
Details in all cases: glycan notation: IUPAC condensed, linker removed
[1] = biological target: Fuc(a1-2)Gal(b1-4)GlcNAc(b1-3)Gal(b1-4)GlcNAc(b1-2)Man(a1-3)[Fuc(a1-2)Gal(b1-4)GlcNAc(b1-3)Gal(b1-4)GlcNAc(b1-2)Man(a1-6)]Man(b1-4)GlcNAc(b1-4)GlcNAc
Summary of the method: (§1)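 Glycan array binding is given as a within-array Z-score, which can be read as non-binding when negative. The arrays, 3228 of them, came from the Consortium for Functional Glycomics database and were retained only where the protein sequence was available. Z-scores were averaged across arrays of the same protein sequence at different concentrations or buffers and across linkers.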

[2] = biological target: Fuc(a1-2)Gal(b1-4)GlcNAc(b1-3)Gal(b1-4)GlcNAc(b1-3)Gal(b1-4)GlcNAc
Summary of the method: as §1

[3] = biological target: Fuc(a1-2)Gal(b1-4)GlcNAc(b1-3)GalNAc
Summary of the method: as §1

[4] = biological target: Fuc(a1-2)Gal(b1-4)GlcNAc(b1-3)[Fuc(a1-2)Gal(b1-4)GlcNAc(b1-6)]GalNAc
Summary of the method: as §1

[5] = biological target: Fuc(a1-2)Gal(b1-4)GlcNAc(b1-3)[Fuc(a1-3)[Gal(b1-4)]GlcNAc(b1-6)]Gal(b1-4)Glc
Summary of the method: as §1

[6] = biological target: Fuc(a1-2)Gal(b1-4)GlcNAc(b1-6)GalNAc
Summary of the method: as §1

[7] = biological target: Fuc(a1-2)Gal(b1-4)GlcNAc6S
Summary of the method: as §1

[8] = biological target: Fuc(a1-2)Gal(b1-4)[Fuc(a1-3)]GlcNAc
Summary of the method: as §1

[9] = biological target: Fuc(a1-2)Gal(b1-4)[Fuc(a1-3)]GlcNAc(b1-2)Man(a1-3)[Fuc(a1-2)Gal(b1-4)[Fuc(a1-3)]GlcNAc(b1-2)Man(a1-6)]Man(b1-4)GlcNAc(b1-4)[Fuc(a1-6)]GlcNAc
Summary of the method: as §1

[10] = biological target: Fuc(a1-2)Gal(b1-4)[Fuc(a1-3)]GlcNAc(b1-2)[Fuc(a1-2)Gal(b1-4)[Fuc(a1-3)]GlcNAc(b1-4)]Man(a1-3)[Fuc(a1-2)Gal(b1-4)[Fuc(a1-3)]GlcNAc(b1-2)Man(a1-6)]Man(b1-4)GlcNAc(b1-4)GlcNAc
Summary of the method: as §1

[11] = biological target: Fuc(a1-2)Gal(b1-4)[Fuc(a1-3)]GlcNAc(b1-3)Gal(b1-4)[Fuc(a1-3)]GlcNAc
Summary of the method: as §1

[12] = biological target: Fuc(a1-2)Gal(b1-4)[Fuc(a1-3)]GlcNAc(b1-3)Gal(b1-4)[Fuc(a1-3)]GlcNAc(b1-3)Gal(b1-4)[Fuc(a1-3)]GlcNAc
Summary of the method: as §1

[13] = biological target: Fuc(a1-2)Gal(b1-4)[Fuc(a1-3)]GlcNAc(b1-3)GalNAc
Summary of the method: as §1

[14] = biological target: Fuc(a1-2)Gal(b1-4)[Fuc(a1-3)]GlcNAc(b1-3)[Neu5Ac(a2-6)Gal(b1-4)GlcNAc(b1-6)]Gal(b1-4)Glc
Summary of the method: as §1

[15] = biological target: Fuc(a1-2)Gal3S(b1-4)GlcNAc
Summary of the method: as §1

[16] = biological target: Fuc(a1-2)Gal6S(b1-3)GlcNAc
Summary of the method: as §1

[17] = biological target: Fuc(a1-2)Gal6S(b1-3)GlcNAc6S
Summary of the method: as §1

[18] = biological target: Fuc(a1-2)Gal6S(b1-4)Glc
Summary of the method: as §1

[19] = biological target: Fuc(a1-2)Gal6S(b1-4)Glc6S
Summary of the method: as §1

[20] = biological target: Fuc(a1-2)[Gal(a1-3)]Gal
Summary of the method: as §1

[21] = biological target: Fuc(a1-2)[Gal(a1-3)]Gal(b1-3)GalNAc
Summary of the method: as §1

[22] = biological target: Fuc(a1-2)[Gal(a1-3)]Gal(b1-3)GalNAc(b1-3)Gal(a1-4)Gal(b1-4)Glc
Summary of the method: as §1

[23] = biological target: Fuc(a1-2)[Gal(a1-3)]Gal(b1-3)GlcNAc
Summary of the method: as §1

[24] = biological target: Fuc(a1-2)[Gal(a1-3)]Gal(b1-3)GlcNAc(b1-2)Man(a1-3)[Fuc(a1-2)[Gal(a1-3)]Gal(b1-3)GlcNAc(b1-2)Man(a1-6)]Man(b1-4)GlcNAc(b1-4)GlcNAc
Summary of the method: as §1

[25] = biological target: Fuc(a1-2)[Gal(a1-3)]Gal(b1-3)GlcNAc(b1-2)Man(a1-3)[Fuc(a1-2)[Gal(a1-3)]Gal(b1-3)GlcNAc(b1-2)Man(a1-6)]Man(b1-4)GlcNAc(b1-4)[Fuc(a1-6)]GlcNAc
Summary of the method: as §1

[26] = biological target: Fuc(a1-2)[Gal(a1-3)]Gal(b1-3)GlcNAc(b1-3)GalNAc
Summary of the method: as §1

[27] = biological target: Fuc(a1-2)[Gal(a1-3)]Gal(b1-3)GlcNAc(b1-6)GalNAc
Summary of the method: as §1

[28] = biological target: Fuc(a1-2)[Gal(a1-3)]Gal(b1-4)Glc
Summary of the method: as §1

[29] = biological target: Fuc(a1-2)[Gal(a1-3)]Gal(b1-4)GlcNAc
Summary of the method: as §1

[30] = biological target: Fuc(a1-2)[Gal(a1-3)]Gal(b1-4)GlcNAc(b1-2)Man
Summary of the method: as §1

B1: Epa11 (Candida glabrata) (protein)
chain: MGSSHHHHHHSSGLVPRGSHMASSNAPNYPVGCSPSVGTQLTPGLSLEVYAYPMDGNNGYCWNATYKDPEFPRSGYLKNKLLGKADGVVGPLNFLAKNKDCSPKVDTLPAGFNFPQPITVTNFTMVLFGYLAPKQSGKYTFKLLADDLLLLNLGATNAFDCCNREATKNNLGEFLAYNLWPNQDKNVTVYLEKGVYYPLRLFFNNRDGGSQLDFSYYFNDSPAPLTDFSGMFFSVPDGAECPARI
Which “glycan array binding signal (z-score)” value [1] does the source give for B1 here?
The value was -0.583.

What about the “glycan array binding signal (z-score)” value [2] of the same binder?
Its value is -0.015.

And the “glycan array binding signal (z-score)” value [3]?
The value was -0.679.

What about the “glycan array binding signal (z-score)” value [4] of the same binder?
The value was 0.05.

And the “glycan array binding signal (z-score)” value [5]?
The value was 0.437.

And the “glycan array binding signal (z-score)” value [6]?
The value was 0.516.

And the “glycan array binding signal (z-score)” value [7]?
Its value is -0.279.

What about the “glycan array binding signal (z-score)” value [8] of the same binder?
The value was -0.402.

And the “glycan array binding signal (z-score)” value [9]?
Its value is -0.282.

What about the “glycan array binding signal (z-score)” value [10] of the same binder?
The value was 0.309.

And the “glycan array binding signal (z-score)” value [11]?
Its value is -0.268.

And the “glycan array binding signal (z-score)” value [12]?
The value was -0.593.

What about the “glycan array binding signal (z-score)” value [13] of the same binder?
Its value is 1.24.

And the “glycan array binding signal (z-score)” value [14]?
The value was -0.575.

And the “glycan array binding signal (z-score)” value [15]?
The value was -0.383.

And the “glycan array binding signal (z-score)” value [16]?
The value was -0.008.

And the “glycan array binding signal (z-score)” value [17]?
Its value is 0.849.

What about the “glycan array binding signal (z-score)” value [18] of the same binder?
Its value is -0.233.

What about the “glycan array binding signal (z-score)” value [19] of the same binder?
The value was -0.331.

What about the “glycan array binding signal (z-score)” value [20] of the same binder?
The value was -0.25.

And the “glycan array binding signal (z-score)” value [21]?
The value was -0.026.

And the “glycan array binding signal (z-score)” value [22]?
Its value is -0.292.

What about the “glycan array binding signal (z-score)” value [23] of the same binder?
Its value is -0.198.

What about the “glycan array binding signal (z-score)” value [24] of the same binder?
Its value is 0.056.

What about the “glycan array binding signal (z-score)” value [25] of the same binder?
The value was -0.041.

What about the “glycan array binding signal (z-score)” value [26] of the same binder?
The value was -0.09.

What about the “glycan array binding signal (z-score)” value [27] of the same binder?
Its value is -0.191.

And the “glycan array binding signal (z-score)” value [28]?
Its value is -0.265.

What about the “glycan array binding signal (z-score)” value [29] of the same binder?
Its value is -0.408.

What about the “glycan array binding signal (z-score)” value [30] of the same binder?
The value was 0.436.
